# From the supplement of paper PMC8728848
# This is one part of the list.
# B1: CD23 (Homo sapiens) (protein)
# chain: MELQVSSGFVCNTCPEKWINFQRKCYYFGKGTKQWVHARYACDDMEGQLVSIHSPEEQDFLTKHASHTGSWIGLRNLDLKGEFIWVDGSHVDYSNWAPGEPTSRSQGEDCVMMRGSGRWNDAFCDRKLGAWVCDRLATCTPPASEGSAESMGPDSRPDPDGRLPTPSAPLHS
# What was measured:
# Assay in all cases: glycan array binding signal (z-score within array); higher = stronger binding
# Details in all cases: glycan notation: IUPAC condensed, linker removed
# Neu5Ac(a2-3)Gal(b1-4)Glc = biological target: Neu5Ac(a2-3)Gal(b1-4)Glc
# Summary of the method: (§1)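 Columns mapping to the same glycan were averaged after glycan names were converted to IUPAC-condensed notation. The data come from 3228 arrays in the Consortium for Functional Glycomics database, limited to those with an available protein sequence. Binding is reported as a within-array Z-score averaged across arrays of one protein sequence and across linkers.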
# [1] = biological target: Neu5Ac(a2-3)Gal(b1-4)GlcNAc
# Summary of the method: as §1
# [2] = biological target: Neu5Ac(a2-3)Gal(b1-4)GlcNAc(b1-3)Gal(b1-3)GlcNAc
# Summary of the method: as §1
# [3] = biological target: Neu5Ac(a2-3)Gal(b1-4)GlcNAc(b1-3)Gal(b1-4)GlcNAc
# Summary of the method: as §1
# [4] = biological target: Neu5Ac(a2-3)Gal(b1-4)GlcNAc(b1-3)Gal(b1-4)GlcNAc(b1-3)Gal(b1-4)GlcNAc
# Summary of the method: as §1
# [5] = biological target: Neu5Ac(a2-3)Gal(b1-4)GlcNAc(b1-3)Gal(b1-4)[Fuc(a1-3)]GlcNAc
# Summary of the method: as §1
# [6] = biological target: Neu5Ac(a2-3)Gal(b1-4)GlcNAc(b1-6)[Gal(b1-3)]GalNAc
# Summary of the method: as §1
# [7] = biological target: Neu5Ac(a2-3)Gal(b1-4)GlcNAc6S
# Summary of the method: as §1
# [8] = biological target: Neu5Ac(a2-3)Gal(b1-4)[Fuc(a1-3)]GlcNAc
# Summary of the method: as §1
# [9] = biological target: Neu5Ac(a2-3)Gal(b1-4)[Fuc(a1-3)]GlcNAc(b1-3)Gal
# Summary of the method: as §1
# [10] = biological target: Neu5Ac(a2-3)Gal(b1-4)[Fuc(a1-3)]GlcNAc(b1-3)Gal(b1-4)GlcNAc
# Summary of the method: as §1
# [11] = biological target: Neu5Ac(a2-3)Gal(b1-4)[Fuc(a1-3)]GlcNAc(b1-3)Gal(b1-4)[Fuc(a1-3)]GlcNAc(b1-3)Gal(b1-4)[Fuc(a1-3)]GlcNAc
# Summary of the method: as §1
# [12] = biological target: Neu5Ac(a2-3)Gal(b1-4)[Fuc(a1-3)]GlcNAc6S
# Summary of the method: as §1
# [13] = biological target: Neu5Ac(a2-3)Gal6S(b1-4)GlcNAc
# Summary of the method: as §1
# [14] = biological target: Neu5Ac(a2-3)Gal6S(b1-4)[Fuc(a1-3)]GlcNAc
# Summary of the method: as §1
# Neu5Ac(a2-3)GalNAc = biological target: Neu5Ac(a2-3)GalNAc
# Summary of the method: as §1
# [15] = biological target: Neu5Ac(a2-3)GalNAc(b1-4)GlcNAc
# Summary of the method: as §1
# [16] = biological target: Neu5Ac(a2-3)[GalNAc(b1-4)]Gal(b1-4)Glc
# Summary of the method: as §1
# [17] = biological target: Neu5Ac(a2-3)[GalNAc(b1-4)]Gal(b1-4)GlcNAc
# Summary of the method: as §1
# [18] = biological target: Neu5Ac(a2-3)[Neu5Ac(a2-6)]GalNAc
# Summary of the method: as §1
# Neu5Ac(a2-6)Gal = biological target: Neu5Ac(a2-6)Gal
# Summary of the method: as §1
# Neu5Ac(a2-6)Gal(b1-4)Glc = biological target: Neu5Ac(a2-6)Gal(b1-4)Glc
# Summary of the method: as §1
# [19] = biological target: Neu5Ac(a2-6)Gal(b1-4)GlcNAc
# Summary of the method: as §1
# [20] = biological target: Neu5Ac(a2-6)Gal(b1-4)GlcNAc(b1-2)Man(a1-3)[Neu5Ac(a2-6)Gal(b1-4)GlcNAc(b1-2)Man(a1-6)]Man(b1-4)GlcNAc(b1-4)GlcNAc
# Summary of the method: as §1
# [21] = biological target: Neu5Ac(a2-6)Gal(b1-4)GlcNAc(b1-3)Gal(b1-4)GlcNAc
# Summary of the method: as §1
# [22] = biological target: Neu5Ac(a2-6)Gal(b1-4)GlcNAc(b1-3)Gal(b1-4)[Fuc(a1-3)]GlcNAc(b1-3)Gal(b1-4)[Fuc(a1-3)]GlcNAc
# Summary of the method: as §1
# [23] = biological target: Neu5Ac(a2-6)Gal(b1-4)GlcNAc6S
# Summary of the method: as §1
# Neu5Ac(a2-6)GalNAc = biological target: Neu5Ac(a2-6)GalNAc
# Summary of the method: as §1
# [24] = biological target: Neu5Ac(a2-6)GalNAc(b1-4)GlcNAc
# Summary of the method: as §1
# Neu5Ac(a2-8)Neu5Ac = biological target: Neu5Ac(a2-8)Neu5Ac
# Summary of the method: as §1
# [25] = biological target: Neu5Ac(a2-8)Neu5Ac(a2-3)Gal(b1-4)Glc
# Summary of the method: as §1
# [26] = biological target: Neu5Ac(a2-8)Neu5Ac(a2-3)[GalNAc(b1-4)]Gal(b1-4)Glc
# Summary of the method: as §1
# [27] = biological target: Neu5Ac(a2-8)Neu5Ac(a2-8)Neu5Ac
# Summary of the method: as §1
# [28] = biological target: Neu5Ac(a2-8)Neu5Ac(a2-8)Neu5Ac(a2-3)Gal(b1-4)Glc
# Summary of the method: as §1
# [29] = biological target: Neu5Ac(a2-8)Neu5Ac(a2-8)Neu5Ac(a2-3)[GalNAc(b1-4)]Gal(b1-4)Glc
# Summary of the method: as §1
# [30] = biological target: Neu5Ac(a2-8)Neu5Ac(a2-8)Neu5Ac(a2-8)Neu5Ac(a2-3)[GalNAc(b1-4)]Gal(b1-4)Glc
# Summary of the method: as §1
# [31] = biological target: Neu5Ac(b2-6)Gal(b1-4)GlcNAc
# Summary of the method: as §1
# Neu5Ac(b2-6)GalNAc = biological target: Neu5Ac(b2-6)GalNAc
# Summary of the method: as §1
# [32] = biological target: Neu5Ac9Ac(a2-6)Gal(b1-4)GlcNAc
# Summary of the method: as §1
# [33] = biological target: Neu5Gc(a2-3)Gal(b1-3)GlcNAc
# Summary of the method: as §1
# [34] = biological target: Neu5Gc(a2-3)Gal(b1-3)[Fuc(a1-4)]GlcNAc
# Summary of the method: as §1
# Neu5Gc(a2-3)Gal(b1-4)Glc = biological target: Neu5Gc(a2-3)Gal(b1-4)Glc
# Summary of the method: as §1
# [35] = biological target: Neu5Gc(a2-3)Gal(b1-4)GlcNAc
# Summary of the method: as §1
# [36] = biological target: Neu5Gc(a2-3)Gal(b1-4)[Fuc(a1-3)]GlcNAc
# Summary of the method: as §1
# [37] = biological target: Neu5Gc(a2-6)Gal(b1-4)GlcNAc
# Summary of the method: as §1
binder,measurement,setting,value
B1,glycan array binding signal (z-score),Neu5Ac(a2-3)Gal(b1-4)Glc,-0.51
same,glycan array binding signal (z-score),[1],-0.071
same,glycan array binding signal (z-score),[2],-0.539
same,glycan array binding signal (z-score),[3],-0.528
same,glycan array binding signal (z-score),[4],-0.961
same,glycan array binding signal (z-score),[5],-0.233
same,glycan array binding signal (z-score),[6],0.066
same,glycan array binding signal (z-score),[7],-0.517
same,glycan array binding signal (z-score),[8],0.034
same,glycan array binding signal (z-score),[9],-0.435
same,glycan array binding signal (z-score),[10],1.15
same,glycan array binding signal (z-score),[11],0.207
same,glycan array binding signal (z-score),[12],-0.09
same,glycan array binding signal (z-score),[13],-0.571
same,glycan array binding signal (z-score),[14],0.332
same,glycan array binding signal (z-score),Neu5Ac(a2-3)GalNAc,0.07
same,glycan array binding signal (z-score),[15],0.011
same,glycan array binding signal (z-score),[16],-0.423
same,glycan array binding signal (z-score),[17],-0.147
same,glycan array binding signal (z-score),[18],-0.115
same,glycan array binding signal (z-score),Neu5Ac(a2-6)Gal,0.034
same,glycan array binding signal (z-score),Neu5Ac(a2-6)Gal(b1-4)Glc,-0.226
same,glycan array binding signal (z-score),[19],-0.334
same,glycan array binding signal (z-score),[20],0.151
same,glycan array binding signal (z-score),[21],0.383
same,glycan array binding signal (z-score),[22],0.322
same,glycan array binding signal (z-score),[23],-0.039
same,glycan array binding signal (z-score),Neu5Ac(a2-6)GalNAc,-0.532
same,glycan array binding signal (z-score),[24],-0.391
same,glycan array binding signal (z-score),Neu5Ac(a2-8)Neu5Ac,-0.328
same,glycan array binding signal (z-score),[25],-0.319
same,glycan array binding signal (z-score),[26],-0.138
same,glycan array binding signal (z-score),[27],0.201
same,glycan array binding signal (z-score),[28],-0.028
same,glycan array binding signal (z-score),[29],-0.367
same,glycan array binding signal (z-score),[30],-0.043
same,glycan array binding signal (z-score),[31],-0.091
same,glycan array binding signal (z-score),Neu5Ac(b2-6)GalNAc,-0.582
same,glycan array binding signal (z-score),[32],1.43
same,glycan array binding signal (z-score),[33],0.389
same,glycan array binding signal (z-score),[34],0.077
same,glycan array binding signal (z-score),Neu5Gc(a2-3)Gal(b1-4)Glc,-0.171
same,glycan array binding signal (z-score),[35],-0.054
same,glycan array binding signal (z-score),[36],0.007
same,glycan array binding signal (z-score),[37],-0.645

# Already shown: entries from further up.
binder,measurement,setting,value
B1,glycan array binding signal (z-score),[35],-0.054
same,glycan array binding signal (z-score),[36],0.007
